Measurements: patent US20220298163A1, “BTK INHIBITORS WITH IMPROVED DUAL SELECTIVITY” (BEIGENE, LTD., priority 2017, published 2022)
At least one structure is not confirmed: it was looked up by name or label, or the drawing left a doubt.

Protein sequences, listed by entry. Tags and fused reporters are not part of them. Residues count along the entry.
UniProt Q06187, 2-659: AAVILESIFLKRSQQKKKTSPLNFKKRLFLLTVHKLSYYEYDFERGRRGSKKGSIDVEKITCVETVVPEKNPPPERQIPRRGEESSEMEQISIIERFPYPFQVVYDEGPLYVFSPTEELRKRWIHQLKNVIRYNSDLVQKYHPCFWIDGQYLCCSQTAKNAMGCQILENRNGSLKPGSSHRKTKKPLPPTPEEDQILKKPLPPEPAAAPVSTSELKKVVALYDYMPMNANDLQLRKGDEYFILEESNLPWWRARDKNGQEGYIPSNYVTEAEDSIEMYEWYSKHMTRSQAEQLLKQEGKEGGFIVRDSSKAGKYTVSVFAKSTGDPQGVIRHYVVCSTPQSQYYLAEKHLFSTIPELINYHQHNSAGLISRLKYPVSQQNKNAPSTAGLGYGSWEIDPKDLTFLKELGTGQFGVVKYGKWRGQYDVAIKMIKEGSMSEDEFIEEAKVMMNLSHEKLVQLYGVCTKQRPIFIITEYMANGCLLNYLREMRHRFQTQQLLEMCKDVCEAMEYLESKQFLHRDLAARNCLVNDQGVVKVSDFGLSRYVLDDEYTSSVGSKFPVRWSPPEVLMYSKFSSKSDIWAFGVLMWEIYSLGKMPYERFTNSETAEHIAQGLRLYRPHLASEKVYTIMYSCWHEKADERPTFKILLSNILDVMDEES

Legend:
[1] = biological target: T1, Btk kinase (aa2-659, Carna Biosciences) (Homo sapiens, UniProt Q06187); experiment: Btk kinase enzymatic assay (TR-FRET); type: biochemical
T1 construct: purchased Carna Biosciences

Tec = biological target: T2, Tec (Homo sapiens, UniProt P42680); experiment: Biochemical kinase selectivity: IC50 determination of Tec; settings: ratio of IC50 values
T2 sequence (P42680 1-631): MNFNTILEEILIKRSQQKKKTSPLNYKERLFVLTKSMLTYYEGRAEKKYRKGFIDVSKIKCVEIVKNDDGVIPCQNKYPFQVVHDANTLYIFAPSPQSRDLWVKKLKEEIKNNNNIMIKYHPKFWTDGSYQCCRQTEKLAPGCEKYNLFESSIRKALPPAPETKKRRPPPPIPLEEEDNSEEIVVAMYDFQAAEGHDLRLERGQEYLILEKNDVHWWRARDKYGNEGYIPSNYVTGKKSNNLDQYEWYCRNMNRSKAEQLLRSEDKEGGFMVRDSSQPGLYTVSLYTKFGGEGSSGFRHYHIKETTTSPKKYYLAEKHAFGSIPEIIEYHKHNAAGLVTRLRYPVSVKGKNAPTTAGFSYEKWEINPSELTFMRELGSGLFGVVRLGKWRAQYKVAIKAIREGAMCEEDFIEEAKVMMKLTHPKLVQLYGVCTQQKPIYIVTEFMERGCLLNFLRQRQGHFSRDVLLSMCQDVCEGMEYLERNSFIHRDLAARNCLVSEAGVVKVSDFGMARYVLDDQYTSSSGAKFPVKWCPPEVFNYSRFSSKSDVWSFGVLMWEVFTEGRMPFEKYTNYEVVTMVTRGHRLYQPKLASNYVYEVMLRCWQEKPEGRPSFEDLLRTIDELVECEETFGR

C=CC(=O)N1CCC(C2CCNc3c(C(N)=O)c(-c4cc(OC)c(I)c(OC)c4)nn32)CC1 (centres unmarked) [Example A8, 7-(1-acryloylpiperidin-4-yl)-2-(4-iodo-3,5-dimethoxyphenyl)-4,5, tetrahydropyrazolo[1,5-a]pyrimidine-3-carboxamide]
affinity / inhibitory activity for Btk (in words) [1]: high affinity for Btk
Fold of Tec/Btk (Tec): 140 fold
